Measurements published in US20250382361A1, “AFFIBODIES, HYDROGELS CONTAINING AFFIBODIES, AND USES THEREOF” (University of Oregon, priority 2024, published 2025).
These are yes or no findings as the source states them, for the method shown. Some results given as binding are weak or reduced against the parent protein; the word gives no strength.

Amino acid sequences for entries named in this document (tags omitted). A change or cut given only in a name is not applied to a line headed by its entry. Chains listed by the source or under a name are the forms on record and can include a tag or linker. Residues count along the entry.
UniProt P04141, residues 18-144: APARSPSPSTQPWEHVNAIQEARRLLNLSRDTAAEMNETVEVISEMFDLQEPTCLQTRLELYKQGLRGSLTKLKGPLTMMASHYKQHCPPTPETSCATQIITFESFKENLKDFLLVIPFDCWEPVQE
UniProt P09038, residues 143-288: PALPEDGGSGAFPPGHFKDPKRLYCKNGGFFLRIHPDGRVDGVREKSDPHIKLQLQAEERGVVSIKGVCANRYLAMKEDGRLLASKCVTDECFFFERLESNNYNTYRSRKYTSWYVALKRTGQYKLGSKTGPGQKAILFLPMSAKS
Recombinant VEGF165 (vascular endothelial growth factor) (P15692, form named): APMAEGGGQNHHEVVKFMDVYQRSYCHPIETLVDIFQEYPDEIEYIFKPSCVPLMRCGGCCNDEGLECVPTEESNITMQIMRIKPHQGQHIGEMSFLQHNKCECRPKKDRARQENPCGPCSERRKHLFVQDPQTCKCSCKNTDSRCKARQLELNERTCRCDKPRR

B1: GDNF affibody A1 (SEQ ID NO: 65) (designed binder)
chain: AEAKYNKEQVYASDSIQVLPNLTATQRVAFDPALHNDPSQSSELLSEAKKLNDSQAPK
B2: GDNF affibody A2 (SEQ ID NO: 66) (designed binder)
chain: AEAKYNKEKPNAVGEISVLPNLTEFQMVAFIFALVNDPSQSSELLSEAKKLNDSQAPK
B3: GDNF affibody A3 (SEQ ID NO: 67) (designed binder)
chain: AEAKYAKEWTTANYSIGVLPNLTLTQRYAFETALFDDPSQSSELLSEAKKLNDSQAPK
B4: GDNF affibody B4 (SEQ ID NO: 68) (designed binder)
chain: AEAKYTKERHDATLVIHVLPNLTDARILAFIVALSNDPSQSSELLSEAKKLNDSQAPK
B5: GDNF affibody B7 (SEQ ID NO: 70) (designed binder)
chain: AEAKYSKEWYDAYLVIFVLPNLTQFQRPAFPPALKNDPSQSSELLSEAKKLNDSQAPK
B6: GM-CSF affibody GM3-C2 (SEQ ID NO: 18), yeast-displayed (designed binder)
chain: AEAKYNKEWYNAISVIFYLPNLTGFQRAAFVDALGDDPSQSSELLSEAKKLNDSQAPK
B7: FGF-2 affibody FG1_C1 (SEQ ID NO: 45) (designed binder)
chain: AEAKYTKEGCDAYTEIVDLPNLTGYQRRAFYWALENDPSQSSELLSEAKKLNDSQAPK
B8: FGF-2 affibody FG1_C2 (SEQ ID NO: 46) (designed binder)
chain: AEAKYNKEMPDANCQIAFLPNLTQYQVPAFIYALCNDPSQSSELLSEAKKLNDSQAPK
B9: FGF-2 affibody FG1_C3 (SEQ ID NO: 47) (designed binder)
chain: AEAKYNKEGEDATTQIGSLPNLTQAQKHAFAVALGNDPSQSSELLSEAKKLNDSQAPK
B10: FGF-2 affibody FG1_C4 (SEQ ID NO: 48) (designed binder)
chain: AEAKYSKEGFYADWVIPVLPNLTRKQRVAFHDALHNDPSQSSELLSEAKKLNDSQAPK
B11: FGF-2 affibody FG2-C3 (SEQ ID NO: 49) (designed binder)
chain: AEAKYAKEWLDAIDVIGYLPNLTDFQRGAFYDALNDDPSQSSELLSEAKKLNDSQAPK
B12: FGF-2 affibody FG3_C2 (SEQ ID NO: 50) (designed binder)
chain: AEAKYYKEGYNAIVEIRCLPNLTDCQVAAFIDALDDDPSQSSELLSEAKKLNDSQAPK
B13: FGF-2 affibody FG3-C3 (SEQ ID NO: 51) (designed binder)
chain: AEAKYAKELDAAYVVIYFLPNLTHCQMVAFLHALSDDPSQSSELLSEAKKLNDSQAPK
B14: FGF-2 affibody FG4-C1 (SEQ ID NO: 52) (designed binder)
chain: AEAKYSKEVYSAYDVIFALPNLTQYQVLAFFDALCDDPSQSSELLSEAKKLNDSQAPK
B15: FGF-2 affibody FG4-C2 (SEQ ID NO: 53) (designed binder)
chain: AEAKYAKERLTAVCSIVALPNLTEGQMVAFDDALHDDPSQSSELLSEAKKLNDSQAPK
B16: FGF-2 affibody FG4-C3 (SEQ ID NO: 54) (designed binder)
chain: AEAKYAKEGFNAVNVIWPLPNLTADQVCAFICALADDPSQSSELLSEAKKLNDSQAPK
B17: FGF-2 affibody FG4-C4 (SEQ ID NO: 55) (designed binder)
chain: AEAKYAKEGCTAFLEIAALPNLTGYQRDAFIEALFDDPSQSSELLSEAKKLNDSQAPK
B18: VEGF affibody L1 (SEQ ID NO: 23) (designed binder)
chain: AEAKYYKEWNAAYVVINGLPNLTRRQREAFVHALVDDPSQSSELLSEAKKLNDSQAPK
B19: VEGF affibody L3 (SEQ ID NO: 24) (designed binder)
chain: AEAKYYKERYAANYSIWVLPNLTLLQRFAFFFALSNDPSQSSELLSEAKKLNDSQAPK
B20: VEGF affibody L4 (SEQ ID NO: 25) (designed binder)
chain: AEAKYAKELDDAFFEIASLPNLTGFQLHAFAVALGNDPSQSSELLSEAKKLNDSQAPK
B21: VEGF affibody L5 (SEQ ID NO: 26) (designed binder)
chain: AEAKYNKERDSAYSVIWGLPNLTDSQKAAFGYALYNDPSQSSELLSEAKKLNDSQAPK
B22: VEGF affibody L8 (SEQ ID NO: 28) (designed binder)
chain: AEAKYNKEWYDAILEIGFLPNLTGHQRDAFSDALVDDPSQSSELLSEAKKLNDSQAPK
B23: VEGF affibody BM2 (SEQ ID NO: 31) (designed binder)
chain: AEAKYAKEWFYAYHVIYDLPNLTGFQKHAFYLALYDDPSQSSELLSEAKKLNDSQAPK
B24: VEGF affibody BM7 (SEQ ID NO: 33) (designed binder)
chain: AEAKYAKEGATAFGSIPYLPNLTDVQRYAFIVALLDDPSQSSELLSEAKKLNDSQAPK
B25: VEGF affibody BR1 (SEQ ID NO: 34) (designed binder)
chain: AEAKYTKEWYAAVVQIGYLPNLTAFQRAAFSFALSNDPSQSSELLSEAKKLNDSQAPK
B26: VEGF affibody BR3 (SEQ ID NO: 35) (designed binder)
chain: AEAKYTKERDDASLEIAYLPNLTPYQLMAFFFALSNDPSQSSELLSEAKKLNDSQAPK
B27: VEGF affibody BR6 (SEQ ID NO: 37) (designed binder)
chain: AEAKYAKEWEDAINEIWCLPNLTEYQRIAFVSALYNDPSQSSELLSEAKKLNDSQAPK
B28: VEGF affibody BR7 (SEQ ID NO: 38) (designed binder)
chain: AEAKYAKELLNAFDEIYGLPNLTVGQRMAFCDALINDPSQSSELLSEAKKLNDSQAPK
B29: VEGF affibody TM4 (SEQ ID NO: 39) (designed binder)
chain: AEAKYYKEWYDAFVVIDALPNLTAYQREAFIFALVNDPSQSSELLSEAKKLNDSQAPK
B30: VEGF affibody TM6 (SEQ ID NO: 40) (designed binder)
chain: AEAKYYKEWVDAYLVIDSLPNLTRLQVEAFVFALVNDPSQSSELLSEAKKLNDSQAPK
B31: VEGF affibody TM7 (SEQ ID NO: 41) (designed binder)
chain: AEAKYTKEVDYAACVIAYLPNLTGVQVYAFYRALADDPSQSSELLSEAKKLNDSQAPK

molecular target: T1, Glial derived neurotrophic factor (GDNF) (UniProt P39905); assay: yeast surface display, flow cytometry
T1 sequence (looked up): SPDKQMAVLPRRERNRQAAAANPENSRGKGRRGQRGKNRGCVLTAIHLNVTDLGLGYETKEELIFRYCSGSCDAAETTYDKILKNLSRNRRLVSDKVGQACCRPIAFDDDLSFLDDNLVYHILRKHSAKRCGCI

Row | Binder | binding
1 | B1 | binds
2 | B2 | binds
3 | B3 | binds
4 | B4 | binds
5 | B5 | binds

molecular target: Granulocyte-macrophage colony-stimulating factor (GM-CSF), biotinylated (UniProt P04141); assay: yeast surface display, flow cytometry

Row | Binder | binding
6 | B6 | binds

molecular target: Recombinant FGF-2 (fibroblast growth factor 2) (UniProt P09038); assay: yeast surface display sorting (MACS, FACS)

Row | Binder | binding
7 | B7 | binds
8 | B8 | binds
9 | B9 | binds
10 | B10 | binds
11 | B11 | binds
12 | B12 | binds
13 | B13 | binds
14 | B14 | binds
15 | B15 | binds
16 | B16 | binds
17 | B17 | binds

molecular target: Recombinant VEGF165 (vascular endothelial growth factor) (UniProt P15692); assay: yeast surface display sorting (MACS, FACS)

Row | Binder | binding
18 | B18 | binds
19 | B19 | binds
20 | B20 | binds
21 | B21 | binds
22 | B22 | binds
23 | B23 | binds
24 | B24 | binds
25 | B25 | binds
26 | B26 | binds
27 | B27 | binds
28 | B28 | binds
29 | B29 | binds
30 | B30 | binds
31 | B31 | binds
